Source: patent publication US4256736A (Akzona Incorporated, priority 1978, dated 1981)
Some peptides are written in HELM: one residue between dots, names in brackets for other building blocks, links after the first $. *: point of attachment. Cbz = O=C(OCc1ccccc1)*; Boc = CC(C)(C)OC(=O)*; OtBu = CC(C)(C)O*

Test: general procedure: solution-phase peptide synthesis; DCCI/HOBt; azide method; active esters (ONp)
Details: acetate

H-TSE(OtBu)K(Boc)-OMe
step yield (coupling step): 61.9% | step yield (late stage modification step): 99%

Boc-GGFMTSE(OtBu)K(Boc)-OH
step yield (late stage modification step): 78%

Boc-GGFMTSE(OtBu)K(Boc)-OMe
step yield (coupling step): 61%

H-LVTL-OtBu
step yield (coupling step): 77%

Cbz-SQTP-OH
step yield (late stage modification step): 90%

H-SQTPLVTL-OtBu
step yield (coupling step): 72% | step yield (late stage modification step): 86%

PEPTIDE1{G.G.F.M.T.S.E.K.S.Q.T.P.L.V.T.L}$$$$V2.0
step yield (coupling step): 77%
